Laboratory results published in patent US20210221894A1.
No constants are given. Whether binding was seen depends on the method and setting. Some results given as binding are weak or reduced against the parent protein; the word gives no strength.

Amino acid sequences for entries named in this document (tags omitted). A change or cut given only in a name is not applied to a line headed by its entry.
UniProt Q9NYJ7: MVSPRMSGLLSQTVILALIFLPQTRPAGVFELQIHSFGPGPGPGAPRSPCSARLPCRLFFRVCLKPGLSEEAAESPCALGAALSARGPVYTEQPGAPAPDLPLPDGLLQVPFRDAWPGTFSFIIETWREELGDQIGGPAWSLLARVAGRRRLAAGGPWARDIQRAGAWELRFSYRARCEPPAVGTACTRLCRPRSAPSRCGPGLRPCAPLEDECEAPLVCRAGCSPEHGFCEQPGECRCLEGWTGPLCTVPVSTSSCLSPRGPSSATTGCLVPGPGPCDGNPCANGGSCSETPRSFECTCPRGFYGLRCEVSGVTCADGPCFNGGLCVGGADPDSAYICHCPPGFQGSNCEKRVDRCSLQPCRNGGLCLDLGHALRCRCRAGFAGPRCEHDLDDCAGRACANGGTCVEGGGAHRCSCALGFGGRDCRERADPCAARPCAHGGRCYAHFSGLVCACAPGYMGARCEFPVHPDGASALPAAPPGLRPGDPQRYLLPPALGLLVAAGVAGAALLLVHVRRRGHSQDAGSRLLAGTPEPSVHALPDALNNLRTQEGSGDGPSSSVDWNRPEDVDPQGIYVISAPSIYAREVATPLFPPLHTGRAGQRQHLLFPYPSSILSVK

How the values were obtained:
Assay in all cases: SPR, 37 C
[1] = target: recombinant His-tagged EGF2-6 domains of human DLL3 (human) (UniProt Q9NYJ7)
[2] = target: recombinant His-tagged EGF3-6 domains of human DLL3 (human) (UniProt Q9NYJ7)
[3] = target: recombinant His-tagged EGF4-6 domains of human DLL3 (human) (UniProt Q9NYJ7)

Measured: binding

B1: murine anti-DLL3 antibody clone 5E7 (antibody, V domains shown)
VH: EVQLQQSGAELVRPGASVKLSCTASGFNIKDDYIHWVKQWPEQGLEWIGWIDSENGDTEYASKFQGKATMTADTSSNTAYLQLSGLTSEDTAVYYCTTSSYYSYDLFVYWGQGTLVTVSA
VL: DVLMTQTPLTLSVPIGQPASISCKSSQSLLHSNGKTYLNWLLQRPGQSPKLLIYLVSKLESGVPDRFSGSGSGTDFTLKISRVEAEDLGVYYCLQTTHLYTFGGGTKLEIK
binds: all assays above
